{"source": "the supplement of paper PMC10338343", "note": "± gives the standard deviation. The list shows a part of the results, in another mix than the full data. The uncertainty is large for many entries.", "data": [{"tested_on": "MIWI (PIWIL1) piRISC loaded with piRNA #2 (30 nt)", "experiment": "pre-steady-state target cleavage rate (min^-1); MIWI and MILI are mouse PIWI proteins and EfPiwi is from a freshwater sponge; tags in brackets are library labels; higher = faster piRNA-guided slicing of the target", "conditions": "guide: piRNA #2 5'p-UUAGGUAACCCAGUAGAUCCAGAGGAAUUC; auxiliary factor: 500 nM mouse GTSF1", "protocol": "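Cleave-'n-Seq: a library of target RNAs (target site embedded in constant flanks, ACAGCATTCCGCGTTAGTGATATCCG... 5' flank; DNA-blocked outside the site) at 0.1 nM was incubated with 1 nM active mouse MILI or MIWI piRISC (synthetic 5'-monophosphorylated piRNA guide) with or without 500 nM mouse GTSF1 at 33 °C for 1 min to 16 h. Uncleaved targets were sequenced and normalised to non-target controls, and the pooled three trials were fitted to a burst-and-steady-state model to give the pre-steady-state cleavage rate (min^-1; k3 is constrained to at most 1e-4). Sequence is the target site only; target names encode pairing extent (gX:gY) and contiguous / 1-mismatch / 2-mismatch / bulge geometry. Fits with R² ≤ 0 are excluded.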", "values": [{"sequence": "CUUAAGGAGACGAUCAACUGGGUUACGUAA", "pre-steady-state target cleavage rate": "0.000284 ± 0.023"}, {"sequence": "CUUAAGGUCUGGAUCUAACUGGGUUACCUAA", "pre-steady-state target cleavage rate": "0.000126 ± 0.033"}, {"sequence": "CUUAAGGAGAGGAACUACUGCGUUACCUAA", "pre-steady-state target cleavage rate": "0.00137 ± 0.0085"}, {"sequence": "CUAUUCCUCUGCAUCUUCUGGGUUACCUAA", "pre-steady-state target cleavage rate": "0.316 ± 0.028"}, {"sequence": "GAAUUCCUCUGGAUCUACUGGCUAACCUAA", "pre-steady-state target cleavage rate": "0.0225 ± 0.0083"}, {"sequence": "CUUUUCCUCUGGAUCUACUGGGAAUGGAUA [g9:g27:cont:t1A]", "pre-steady-state target cleavage rate": "0.000846 ± 0.0099"}, {"sequence": "CUUAAGGAGACCAUCUACUGGGUUCCCUAA", "pre-steady-state target cleavage rate": "0.000744 ± 0.0088"}, {"sequence": "CUUAAGGAGACCUUCUACCUGGGUUACCUAA", "pre-steady-state target cleavage rate": "0.00186 ± 0.0054"}, {"sequence": "CUUAAGGAGACCAUCUAGUGGGUUACGUAA", "pre-steady-state target cleavage rate": "0.0012 ± 0.0075"}, {"sequence": "CUUAAGGAGACCAUCUACUGGCUUUCCUAA", "pre-steady-state target cleavage rate": "0.000664 ± 0.011"}, {"sequence": "CUUAAGGAGACGAUCUCACUGGGUUACCUAA", "pre-steady-state target cleavage rate": "0.00013 ± 0.042"}, {"sequence": "CUUAACCUCUGGAUCUACUGGGUUCCUAA", "pre-steady-state target cleavage rate": "0.00439 ± 0.0049"}, {"sequence": "CUUAAGGAGACGAUCUACUGGGUUGACCUAA", "pre-steady-state target cleavage rate": "0.00119 ± 0.0059"}, {"sequence": "CUUAAGGACUGGAUCUACUGGGAUUCCUAA", "pre-steady-state target cleavage rate": "0.00097 ± 0.015"}, {"sequence": "CUUAAGGAGACCAUCUACUGGAUUACCUAA", "pre-steady-state target cleavage rate": "0.0021 ± 0.004"}, {"sequence": "CUUAAGGAGACCUUCUAGUGGGUUACCAAA", "pre-steady-state target cleavage rate": "0.000675 ± 0.017"}, {"sequence": "CUUAAGGAGAGGUACUACUGGGUUACCUAA", "pre-steady-state target cleavage rate": "0.00282 ± 0.0049"}, {"sequence": "CUUAAGGAGACCAACUUCUGGGUUACCUAA", "pre-steady-state target cleavage rate": "0.00162 ± 0.0052"}, {"sequence": "CUUAAGGAGACCUUCUACAGGGUUACCUAA", "pre-steady-state target cleavage rate": "0.00192 ± 0.0054"}, {"sequence": "CUUAAGGAGUGGAUCUACUGAGGUUACCUAA", "pre-steady-state target cleavage rate": "0.000166 ± 0.032"}, {"sequence": "CUUAAGGAGAGGAUCUACUGCGUUUCCUAA", "pre-steady-state target cleavage rate": "0.00172 ± 0.0062"}, {"sequence": "CUUAAGGAGACCUACUACUGGGUUAGCUUA", "pre-steady-state target cleavage rate": "0.000192 ± 0.037"}, {"sequence": "CUUAAGGAGACCAUCUACAGGGUUACGUAA", "pre-steady-state target cleavage rate": "0.00231 ± 0.0038"}, {"sequence": "CUAUUCCUCUGGAUCUACUGCGUUACGUAA", "pre-steady-state target cleavage rate": "0.539 ± 0.08"}, {"sequence": "GAAUUCCUCCGGAUCUACUGGGUUACCUAA", "pre-steady-state target cleavage rate": "0.407 ± 0.058"}, {"sequence": "CUUAAGCUCUGGAUCUACUUGGUUACCUAA", "pre-steady-state target cleavage rate": "0.000685 ± 0.016"}, {"sequence": "CUUAAGGAGACCUAGAUCCUGGGUUACCUAA", "pre-steady-state target cleavage rate": "0.00133 ± 0.0067"}, {"sequence": "CUUAAGGACUGGUUCUACUGGGAUACCUAA", "pre-steady-state target cleavage rate": "0.012 ± 0.016"}, {"sequence": "CUUAAGGAGACCAUGUUCUGGGUUACCUAA", "pre-steady-state target cleavage rate": "0.00134 ± 0.0061"}, {"sequence": "CUUAAGGAGACCUUCUACUCGGUUUCCUAA", "pre-steady-state target cleavage rate": "0.000571 ± 0.016"}, {"sequence": "CUUAAGGAGACCUAGUACUGGGUAACCUAA", "pre-steady-state target cleavage rate": "0.000424 ± 0.0095"}, {"sequence": "CUUAAGGAGACCUAGAUCUGGGUUACGUUA", "pre-steady-state target cleavage rate": "0.00062 ± 0.013"}, {"sequence": "CUUAAGGAGACGAUCUACUGGGUUACCUAC [g2:g19:cont:t1C]", "pre-steady-state target cleavage rate": "0.000989 ± 0.011"}, {"sequence": "CAAUUCCUCUGGAUCUACUGGGAAUGGAUA [g9:g29:cont:t1A]", "pre-steady-state target cleavage rate": "0.000363 ± 0.018"}, {"sequence": "CUUAAGGACUGGAUCUACUGCGUUACCAAA", "pre-steady-state target cleavage rate": "0.0304 ± 0.032"}, {"sequence": "CUUAAGGAGUGGAUGUACUGGGUUAGCUAA", "pre-steady-state target cleavage rate": "0.0086 ± 0.0094"}, {"sequence": "CUUAACCUCUGGAUCUACUCGGUUACCUUA", "pre-steady-state target cleavage rate": "0.052 ± 0.011"}, {"sequence": "CUUAAGGAGACCAUCUACUGGGUUACGUUA", "pre-steady-state target cleavage rate": "0.000571 ± 0.012"}, {"sequence": "CUUAAGGAGACGAUCUGCUGGGUUACCUAA", "pre-steady-state target cleavage rate": "0.000946 ± 0.0066"}, {"sequence": "GAAUUCCUCUGGAUCUAGACGGUUACCUAA", "pre-steady-state target cleavage rate": "0.00251 ± 0.0044"}, {"sequence": "CUUAAGGAGACCUUCUACUGGGUUACCUAA [g2:g17:cont:t1A]", "pre-steady-state target cleavage rate": "0.00291 ± 0.0037"}, {"sequence": "CUUAAGGAGACCUUCUACUGGGUUACCUA", "pre-steady-state target cleavage rate": "0.00104 ± 0.012"}, {"sequence": "CUAUUCCUCUGGAUCUACUGGGUUACGUAA", "pre-steady-state target cleavage rate": "0.63 ± 0.047"}, {"sequence": "CUUAAGGAGACCUAGAACUGGGUCACCUAA", "pre-steady-state target cleavage rate": "0.000318 ± 0.023"}, {"sequence": "CUAAUCCUCUGGAUCUACUGGGUUACCUAA", "pre-steady-state target cleavage rate": "0.412 ± 0.061"}, {"sequence": "CUUAAGGAGACCUAGUAGUGGGUUACGUAA", "pre-steady-state target cleavage rate": "0.000465 ± 0.014"}, {"sequence": "CUUUUCCUCUGGAUCUGACUGGGUUACCUAA", "pre-steady-state target cleavage rate": "0.000851 ± 0.0094"}, {"sequence": "CUUAAGGAGACCUAGAUCUGGGUUACCUGA", "pre-steady-state target cleavage rate": "0.000477 ± 0.013"}, {"sequence": "CUUUUCCUCUGGAUCUACUGGGUUACGUAA", "pre-steady-state target cleavage rate": "0.664 ± 0.034"}, {"sequence": "CUUAACCUCUGGAUCUACUGCCAUACCUAA", "pre-steady-state target cleavage rate": "0.00244 ± 0.0044"}, {"sequence": "CUUAAGGAGUGGAACUACUGGGUUACCAAA", "pre-steady-state target cleavage rate": "0.00137 ± 0.015"}, {"sequence": "CUUAAGGAGACGAUCAACUGGGUUACCUUA", "pre-steady-state target cleavage rate": "0.00028 ± 0.0087"}, {"sequence": "CUUAAGGAGACCAUGUACUGGGUUACCUAA", "pre-steady-state target cleavage rate": "0.00111 ± 0.0042"}, {"sequence": "CAAUUCCUCUGGAUCUACUGGGUUACAUAA", "pre-steady-state target cleavage rate": "0.739 ± 0.053"}, {"sequence": "CUUAAGGAGACGAUCUACUGGGAUACCUUA", "pre-steady-state target cleavage rate": "0.000102 ± 0.039"}, {"sequence": "CAAUUCCUCUGGAUCUACUGGGUUACCAUAA", "pre-steady-state target cleavage rate": "0.588 ± 0.078"}, {"sequence": "CUUUUCCUCAGGAUCUACUGGGUUACGUAA", "pre-steady-state target cleavage rate": "0.523 ± 0.067"}, {"sequence": "CUAUUCCUCUGGAUCUACUCCCUUACCUAA", "pre-steady-state target cleavage rate": "0.000383 ± 0.017"}, {"sequence": "CUUAAGGUCUGGAAGAACUGGGUUACCUAA", "pre-steady-state target cleavage rate": "0.00571 ± 0.011"}, {"sequence": "CUUAAGGAGACCUACUACGGGUUACCUAA", "pre-steady-state target cleavage rate": "0.000821 ± 0.011"}, {"sequence": "CUUAAGGUCUGGAUCUAGUGGCUUACCUAA", "pre-steady-state target cleavage rate": "0.00488 ± 0.0063"}, {"sequence": "CUUAAGGAGUGGAUCUACUGGUUACCUAA", "pre-steady-state target cleavage rate": "0.000967 ± 0.015"}, {"sequence": "CAAUUCCUCUGGAUCAUGUGGGUUACCUAA", "pre-steady-state target cleavage rate": "0.000783 ± 0.012"}, {"sequence": "GAAAUCCUCUCGAUCUACUGGGUUACCUAA", "pre-steady-state target cleavage rate": "0.586 ± 0.054"}, {"sequence": "CUUAAGGAGACCUUCUACUGGGUUACCUAC [g2:g17:cont:t1C]", "pre-steady-state target cleavage rate": "0.00116 ± 0.0086"}, {"sequence": "CUUAAGGAGACGAUCUACUGGGUGUACCUAA", "pre-steady-state target cleavage rate": "0.000498 ± 0.016"}, {"sequence": "CUUAAGGAGAGGAUCUACUGUGGUUACCUAA", "pre-steady-state target cleavage rate": "0.000202 ± 0.037"}, {"sequence": "CUUAAGGAGACCUAGAUGUGCGGUUACCUAA", "pre-steady-state target cleavage rate": "0.00105 ± 0.0081"}, {"sequence": "CUAUUCCUCUGGAUAUACUGGGUUACCUAA", "pre-steady-state target cleavage rate": "0.772 ± 0.057"}, {"sequence": "CUUAAGGAGAGGUUCUACUCGGUUACCUAA", "pre-steady-state target cleavage rate": "0.0013 ± 0.0062"}]}]}
